{"source": "patent US10550155B2", "about": "(priority 2018, dated 2020)", "assay": "general procedure: Fmoc solid-phase peptide synthesis; Rink amide MBHA resin (Novabiochem, 0.51 mmol/g)", "settings": "whole synthesis", "note": "HELM strings list residues between dots; [ac] is acetyl, [am] amide, other brackets name non-standard units."}
{"substance": "PEPTIDE1{F.L.S.G.I.V.G.M.L.[dA].K.L.F.[am]}$$$$V2.0", "values": [{"measurement": "isolated yield", "value": 81.68, "unit": "%"}]}
{"substance": "PEPTIDE1{F.L.S.G.I.V.G.M.L.[dA].K.L.F.[am]}|PEPTIDE2{W.L.E.A.A.Y.Q.K.F.L}$PEPTIDE1,PEPTIDE2,11:R3-10:R2$$$V2.0", "values": [{"measurement": "isolated yield", "value": 13.1, "unit": "%"}]}
{"substance": "PEPTIDE1{F.L.S.G.I.V.[dA].M.L.G.K.L.F.[am]}$$$$V2.0", "values": [{"measurement": "isolated yield", "value": 69.62, "unit": "%"}]}
{"substance": "PEPTIDE1{F.L.S.[dA].I.V.G.M.L.G.K.L.F.[am]}$$$$V2.0", "values": [{"measurement": "isolated yield", "value": 68.57, "unit": "%"}]}
{"substance": "PEPTIDE1{F.L.S.[dA].I.V.[dA].M.L.G.K.L.F.[am]}$$$$V2.0", "values": [{"measurement": "isolated yield", "value": 80.29, "unit": "%"}]}
{"substance": "PEPTIDE1{F.L.S.[dA].I.V.[dA].M.L.[dA].K.L.F.[am]}$$$$V2.0", "values": [{"measurement": "isolated yield", "value": 27.93, "unit": "%"}]}
